This note sets out measurements from PMC7862700.

The list shows a part of the results, in another mix than the full data. At the low end of the ranking, values are background and their order means little.

The target of this assay is T1, ETV3L (UniProt Q6ZN32).
T1 sequence: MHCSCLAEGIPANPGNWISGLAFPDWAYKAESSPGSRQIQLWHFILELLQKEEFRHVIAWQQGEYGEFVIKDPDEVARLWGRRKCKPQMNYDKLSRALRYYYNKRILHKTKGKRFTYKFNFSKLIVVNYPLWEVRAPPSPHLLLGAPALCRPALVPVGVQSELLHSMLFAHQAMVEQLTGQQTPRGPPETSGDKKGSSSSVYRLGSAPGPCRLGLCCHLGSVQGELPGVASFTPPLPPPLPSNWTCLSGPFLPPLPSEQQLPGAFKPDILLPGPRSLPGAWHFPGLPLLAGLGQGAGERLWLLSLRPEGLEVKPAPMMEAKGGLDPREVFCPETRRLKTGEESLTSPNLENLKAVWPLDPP
Briefly: DAPPL (digital affinity profiling via proximity ligation, sequencing). Conditions: 10 mM Tris-HCl pH 7.5, 50 mM NaCl, 1 mM DTT, 4% glycerol, room temperature, 30 min; GST-TFs on glutathione beads, 16-mer random dsDNA library, 0.1% …; high values mean tight binding; double strand, one strand shown; scale: fold enrichment (6-mer frequency, TF over GST control).
On to TGCAAT, for which the binding signal came out at 1.12. TTAGGT: the binding signal was found to be 0.987.

As for AATTTG, the binding signal was determined as 1.3. ATAGCC: the binding signal is 0.964. Then ACGACA, with 1.12. TCAGCA displayed a binding signal of 0.989. In the case of ACGACT, the binding signal was 1.28. Then AACGAT, with 1.19; and GTCTCT, with 1.35.

The sequence AGTGTC showed a binding signal of 0.997. Then AACACG, with 1.15; and GCGCCC, with 1.2; and GGTCAC, with 0.987. Sequence TCCGTT gave a binding signal of 1.46. Turning to CACCTC, the binding signal turned out to be 1.18.

TTCAAT registered a binding signal of 1.47. As for CGTAGC, the binding signal was determined as 1.09.
